Experimental data as given in PubChem BioAssay AID445 (National Center for Advancing Translational Sciences (NCATS), 2006).
This is one part of the list. Further columns of the screen follow, without active or inactive calls. Most of these compounds were active or inconclusive in the main read-out, so they are no random draw. Potencies come from curve fits of mixed quality, noted in brackets.

Assay: IkB Signaling
Details: ABC-DLBCL IkBa-CBG/CBR dual luciferase ratio (green luciferase fused to IkBa over red control in OCI-Ly3 lymphoma cells), 4 h
In short: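 Curves were fitted separately to fusion (green), unfused (red) and ratio luminescence, then classed by r2, magnitude and activity. Cells: OCI-Ly3, 4 h compound plus doxycycline at 37C; 10 uM MG-132 defined full response.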

[1] = measured here: control luc red channel unless noted

**Q.** For `O=C(O)CCC(=O)c1ccc2sc3ccccc3c2c1`, which AC50 [1] is on record?
**A.** The AC50 was 0.0501 µM [falling, full curve].

**Q.** Which AC50 [1] does the source give for `O=C(c1ccc(OCCN2CCCCC2)cc1)c1c(-c2ccc(O)cc2)sc2cc(O)ccc12` here?
**A.** Its AC50 is 6.31 µM [falling, partial curve, poor fit] [measured here: IkB-luc green channel].

**Q.** With `O=C(NC(Cc1ccccc1)C(=O)N1CCN(c2ccccn2)CC1)c1ccco1` (stereo not drawn) as the compound, how does the AC50 [1] read?
**A.** Its AC50 is 12.6 µM [falling, partial curve].

**Q.** Which AC50 [1] does the source give for `CN(C)S(=O)(=O)c1cccc(-c2nnc(SCc3ccc4c(c3)OCCO4)o2)c1` here?
**A.** The AC50 was 39.8 µM [falling, single point].

**Q.** Which AC50 [1] does the source give for `Cc1cccc(N2CCN(C(=O)CS(=O)(=O)c3cccc4nsnc34)CC2C)c1` (stereo not drawn) here?
**A.** Its AC50 is 20 µM [falling, single point].

**Q.** With `CC1(C)CC(=O)c2c(oc3c(Cl)cc(NS(=O)(=O)c4ccc(Cl)cc4)cc23)C1` as the compound, how does the AC50 [1] read?
**A.** Its AC50 is 39.8 µM [falling, single point].

**Q.** For `CN(C)S(=O)(=O)c1ccc2c(c1)N(CC(=O)N1CCN(c3ccc(F)cc3)CC1)CCS2`, which AC50 [1] is on record?
**A.** Its AC50 is 25.1 µM [falling, partial curve, poor fit].

**Q.** For `Cc1ccc(-c2nc(CS(=O)CC(=O)N3CCN(c4ccc(Cl)cc4)CC3)c(C)o2)cc1` (stereo not drawn), which AC50 [1] is on record?
**A.** The AC50 was 25.1 µM [falling, partial curve, poor fit].

**Q.** Which AC50 [1] does the source give for `CC1CCN(c2ccc(-c3nc(C(C)C)no3)cc2[N+](=O)[O-])CC1` here?
**A.** Its AC50 is 25.1 µM [falling, single point].

**Q.** With `Cc1nc2ccccc2c(=O)n1-c1ccc(NC(=O)C(F)(F)F)cc1` as the compound, how does the AC50 [1] read?
**A.** Its AC50 is 6.31 µM [rising, single point].

**Q.** With `C=CCn1c(SCC(=O)Nc2ccc3c(c2)OCO3)nnc1-c1cc(Br)ccc1O` as the compound, how does the AC50 [1] read?
**A.** The AC50 was 12.6 µM [falling, partial curve].

**Q.** For `COc1ccc(OC)c(CNC(=O)CCCn2ccc3cc(S(=O)(=O)N4CCCC4)ccc32)c1`, which AC50 [1] is on record?
**A.** The AC50 was 31.6 µM [falling, partial curve].

**Q.** With `CCOc1ccc(CNC(=O)CCC(=O)N2CC(C)Sc3ccccc32)cc1` (stereo not drawn) as the compound, how does the AC50 [1] read?
**A.** The AC50 was 15.8 µM [falling, partial curve].

**Q.** With `CCOc1ccc(CCNC(=O)CCCn2nc(C)c3sc4ccccc4c3c2=O)cc1OCC` as the compound, how does the AC50 [1] read?
**A.** The AC50 was 10 µM [falling, partial curve].

**Q.** Which AC50 [1] does the source give for `O=C(CSc1nccn1-c1ccccc1)Nc1nc2ccccc2s1` here?
**A.** Its AC50 is 39.8 µM [falling, partial curve].

**Q.** With `CCCc1cc(=O)[nH]c(Nc2ccc(C(=O)O)cc2)n1` as the compound, how does the AC50 [1] read?
**A.** The AC50 was 15.8 µM [falling, partial curve].

**Q.** With `COC(=O)CC1c2cc(OC)c(OC)cc2CCN1C(=O)Nc1ccc(C)cc1Cl` (stereo not drawn) as the compound, how does the AC50 [1] read?
**A.** The AC50 was 12.6 µM [falling, single point].

**Q.** With `COc1ccccc1Nc1nn2c(=O)c3ccc(C(=O)NCCCOC(C)C)cc3nc2s1` as the compound, how does the AC50 [1] read?
**A.** Its AC50 is 0.631 µM [falling, full curve, poor fit].

**Q.** Which AC50 [1] does the source give for `CCc1ccc(CNC(=O)c2cccc(-n3cnc4cccnc43)c2C)cc1` here?
**A.** The AC50 was 12.6 µM [falling, partial curve].

**Q.** With `CCC1CN(C(=O)N2CCC(C(=O)NCCN(C)C)CC2)c2ccccc2O1` (stereo not drawn) as the compound, how does the AC50 [1] read?
**A.** The AC50 was 20 µM [falling, partial curve].

**Q.** Which AC50 [1] does the source give for `Cn1cccc1C(=O)OCc1csc(-c2ccccc2)n1` here?
**A.** The AC50 was 6.31 µM [falling, partial curve].

**Q.** With `Cc1ccc(CN(C(=O)COc2cccc([N+](=O)[O-])c2)c2ccccn2)o1` as the compound, how does the AC50 [1] read?
**A.** The AC50 was 7.94 µM [falling, partial curve, poor fit].

**Q.** Which AC50 [1] does the source give for `O=S(=O)(Nc1ccc(Cl)cc1)c1ccc(NS(=O)(=O)c2ccc3c(c2)OCCO3)cc1` here?
**A.** The AC50 was 10 µM [falling, partial curve].

**Q.** Which AC50 [1] does the source give for `OCCCc1nc2ccccc2n1CCOc1ccccc1` here?
**A.** The AC50 was 7.94 µM [falling, partial curve].

**Q.** For `CCC(=O)N1CCc2cc(Br)cc(S(=O)(=O)N3CCCC(C(=O)Nc4ccc(OC)c(Cl)c4)C3)c21` (stereo not drawn), which AC50 [1] is on record?
**A.** The AC50 was 0.398 µM [falling, full curve].

**Q.** With `CCC(C)NC(=O)c1cnn(-c2ccc(Cl)cc2)c1C1CCN(C(=O)OC(C)(C)C)CC1` (stereo not drawn) as the compound, how does the AC50 [1] read?
**A.** Its AC50 is 15.8 µM [falling, partial curve].

**Q.** Which AC50 [1] does the source give for `Cc1ccn2c(Nc3ccc4c(c3)OCCO4)c(-c3ccc(Cl)s3)nc2c1` here?
**A.** Its AC50 is 3.16 µM [falling, partial curve].

**Q.** Which AC50 [1] does the source give for `CN(C1CCCCC1)S(=O)(=O)c1ccc2c(c1)c(=O)c(C(=O)NCCc1ccccc1)cn2C` here?
**A.** Its AC50 is 39.8 µM [falling, single point].

**Q.** For `c1nc2sc3c(c2c2nnnn12)CCCC3`, which AC50 [1] is on record?
**A.** Its AC50 is 31.6 µM [falling, partial curve].

**Q.** Which AC50 [1] does the source give for `CCCCCC(=O)N(O)C1CC(=O)N(c2ccccc2)C1=O` (stereo not drawn) here?
**A.** The AC50 was 12.6 µM [falling, partial curve].

**Q.** With `COc1ccc(C)cc1N(C)C(=O)c1c(C)oc2ncnc(N3CCOCC3)c12` as the compound, how does the AC50 [1] read?
**A.** Its AC50 is 39.8 µM [falling, single point].

**Q.** For `Cc1nn(C)c(C)c1S(=O)(=O)N1CCCC(C(=O)N2CCN(c3ccc(Cl)cc3)CC2)C1` (stereo not drawn), which AC50 [1] is on record?
**A.** The AC50 was 7.94 µM [falling, partial curve].

**Q.** Which AC50 [1] does the source give for `CN(c1ccc(Cl)cc1)S(=O)(=O)c1nnc(NC(=O)C2CCCCC2)s1` here?
**A.** Its AC50 is 20 µM [falling, single point].

**Q.** Which AC50 [1] does the source give for `COc1cc(C(=O)Oc2c(Sc3ccc(C)cc3)c(C)nn2-c2ccccc2)cc(OC)c1OC` here?
**A.** Its AC50 is 10 µM [falling, partial curve].

**Q.** For `CCOc1ccccc1NC(=O)c1c(NC(=O)c2ccccc2C)sc2c1CCC(C)C2` (stereo not drawn), which AC50 [1] is on record?
**A.** The AC50 was 12.6 µM [falling, partial curve].

**Q.** Which results are given for `COC(=O)c1c(C)sc(-c2c(-c3ccc4c(c3)OCCO4)[nH]c3c2c(=O)n(C)c(=O)n3C)c1O`?
**A.** AC50 (measured here: IkB-luc green channel): 39.8 µM [rising, single point]; AC50 (measured here: control luc red channel): 2 µM [falling, partial curve]

**Q.** With `COc1ccccc1-c1cc(C(=O)Nc2cc(OC)c(OC)c(OC)c2)no1` as the compound, how does the AC50 [1] read?
**A.** The AC50 was 15.8 µM [falling, partial curve].

**Q.** Which AC50 [1] does the source give for `CCN(CC)CCCNC(=O)c1nn(C)c2c1CSc1ccccc1-2` here?
**A.** The AC50 was 12.6 µM [falling, partial curve].

**Q.** For `CCN(CC)c1ccc(C(=O)NCc2ccc3c(c2)CCN3C(=O)c2ccc(F)cc2)cc1`, which AC50 [1] is on record?
**A.** The AC50 was 7.94 µM [falling, full curve].

**Q.** With `COc1ccc(C(C)=O)cc1CSc1nc(NCCc2ccccc2)c2ccccc2n1` as the compound, how does the AC50 [1] read?
**A.** The AC50 was 25.1 µM [falling, single point].

**Q.** For `COc1ccc(C(=O)NNc2ncnc3c2cnn3-c2cccc(Cl)c2)cc1OC`, which AC50 [1] is on record?
**A.** The AC50 was 1.58 µM [falling, full curve].

**Q.** Which AC50 [1] does the source give for `NC(=O)c1cc2ccc(O)cc2oc1=Nc1ccccc1` here?
**A.** The AC50 was 0.02 µM [falling, full curve].

**Q.** With `COc1ccc(NC(=O)CCc2nc3c(C)nn(-c4ccc(C)cc4)c3n(C)c2=O)cc1` as the compound, how does the AC50 [1] read?
**A.** The AC50 was 25.1 µM [falling, partial curve, poor fit].

**Q.** Which AC50 [1] does the source give for `O=C(CN1C2=NCCN2c2ccccc21)c1ccc(Br)cc1` here?
**A.** Its AC50 is 3.98 µM [falling, full curve, poor fit].

**Q.** Which AC50 [1] does the source give for `Cc1cccc(N(CC(=O)NCCSCc2cccc(Cl)c2)S(=O)(=O)c2ccccc2)c1C` here?
**A.** Its AC50 is 15.8 µM [falling, partial curve].

**Q.** For `COc1ccc(Cl)cc1CNCCSc1nnnn1-c1ccccc1`, which AC50 [1] is on record?
**A.** The AC50 was 31.6 µM [falling, single point].

**Q.** Which AC50 [1] does the source give for `COc1ccc(C2NC(=O)N(C)C3=C2C(=O)N(c2cccc(C(=O)O)c2)C3)cc1` (stereo not drawn) here?
**A.** The AC50 was 31.6 µM [rising, single point].

**Q.** For `Cc1ccc(C)c(NC(=O)Cn2cc(C(=O)c3cccs3)c3ccccc32)c1`, which AC50 [1] is on record?
**A.** The AC50 was 12.6 µM [falling, partial curve].

**Q.** For `CCOc1ccccc1NC(=O)C1CCCN1S(=O)(=O)c1ccc2c(c1)C(C)(C)C(=O)N2C` (stereo not drawn), which AC50 [1] is on record?
**A.** Its AC50 is 31.6 µM [falling, single point].

**Q.** Which AC50 [1] does the source give for `C=CCn1c(=O)/c(=C/c2ccc(Cl)cc2)s/c1=C(/C#N)c1nnc2n1CCCCC2` here?
**A.** The AC50 was 15.8 µM [falling, partial curve].

**Q.** With `Nc1c(C(=O)Nc2ccccc2F)sc2nc3c(cc12)CCCCCC3` as the compound, how does the AC50 [1] read?
**A.** The AC50 was 0.02 µM [rising, full curve].

**Q.** Which AC50 [1] does the source give for `CCC(C(=O)NCc1ccc(OC)c(OC)c1)n1nc(C)c2c(C)n(-c3ccc(C)cc3)nc2c1=O` (stereo not drawn) here?
**A.** Its AC50 is 15.8 µM [falling, partial curve].

**Q.** With `COc1ccc(Cc2nc3c4cnn(-c5ccccc5F)c4ncn3n2)cc1` as the compound, how does the AC50 [1] read?
**A.** The AC50 was 25.1 µM [falling, partial curve].

**Q.** For `COC(=O)c1cc(CSc2nnc(NC3CCCCC3)s2)oc1C`, which AC50 [1] is on record?
**A.** Its AC50 is 12.6 µM [falling, partial curve].

**Q.** Which AC50 [1] does the source give for `CCc1ccccc1NC(=O)CN1CCCN(Cc2cc(C)ccc2C)S1(=O)=O` here?
**A.** The AC50 was 3.98 µM [falling, full curve, poor fit].

**Q.** For `CCc1ccc(NC(=O)CCNS(=O)(=O)c2ccc3c(c2)oc(=O)n3C)cc1`, which AC50 [1] is on record?
**A.** Its AC50 is 10 µM [falling, partial curve].

**Q.** For `COc1cccc(NS(=O)(=O)c2ccc3c(c2)N(C)C(=O)CC(=O)N3C)c1`, which AC50 [1] is on record?
**A.** The AC50 was 7.94 µM [falling, partial curve].

**Q.** For `Nc1ccc(N2CCCCC2)cc1N1CCCCC1`, which AC50 [1] is on record?
**A.** The AC50 was 39.8 µM [falling, single point].

**Q.** For `O=C(Nc1nccs1)C(NS(=O)(=O)c1ccc(Br)s1)c1ccccc1` (stereo not drawn), which AC50 [1] is on record?
**A.** Its AC50 is 20 µM [falling, partial curve].

**Q.** With `O=C(Nc1ccc(Br)cc1F)N1CC=C(c2c[nH]c3ccccc23)CC1` as the compound, how does the AC50 [1] read?
**A.** Its AC50 is 10 µM [falling, partial curve].

**Q.** For `CC(CCc1ccccc1)NC(=O)CSc1n[nH]c(-c2ccc(F)cc2)n1` (stereo not drawn), which AC50 [1] is on record?
**A.** Its AC50 is 15.8 µM [falling, partial curve].

**Q.** With `COc1ccc(CNC(=O)CN2C(=O)CCn3nc(-c4ccccc4)cc32)c(OC)c1` as the compound, how does the AC50 [1] read?
**A.** The AC50 was 20 µM [falling, single point].
